Source: PubChem BioAssay (NCATS)
This is one part of the list. The main result of the screen is listed elsewhere. These columns were measured beside it and carry no call. Compounds called inactive in the main read-out are mostly missing here. Words in brackets tell the shape of the fitted curve; partial curves, single points and poor fits give uncertain potencies.

assay: A High-Content qHTS Against Drug Library for the Identification of Small Molecules that Inhibit DYT1 Early Onset Primary Dystonia-Associated Cell Pathology (AID 1645839); settings: HEK293 Flp-In EGFP-delE TorsinA, punctate imaging, 48 h; measured here: cell count cytotoxicity
How it was run: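 Flp-In T-REx 293 cells with tetracycline-inducible EGFP-delE hTOR1A (WT EGFP-hTOR1A as reference), 800 cells/well; compound added with tetracycline, 48 h at 37 C. Fixed, permeabilized cells imaged; %pathology (punctate TorsinA) primary, cell count counterscreen.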

| SMILES | AC50 |
| --- | --- |
| CC(C)(C)NCC(O)c1cc(Cl)c(N)c(C(F)(F)F)c1 (stereo not drawn) | 1.78 µM [falling, full curve, poor fit] |
| CC1=C2[C@H]3OC(=O)[C@@H](C)[C@@H]3CC[C@@]2(C)C=CC1=O | 2.51 µM [rising, full curve, poor fit] |
| CCN(CC)C(=O)[C@@H]1C=C2c3cccc4[nH]cc(c34)C[C@H]2N(C)C1 | 141 µM [falling, single point] |
| CCCN(CCC)CCc1c[nH]c2ccccc12 | 56.2 µM [falling, single point] |
| Cc1nc2ccccc2c(=O)n1-c1ccccc1Cl | 28.2 µM [falling, single point] |
| COc1ccc(OC)c(CC(C)N)c1 (stereo not drawn) | 70.8 µM [falling, single point] |
| Clc1ccc(CCC(Cn2ccnc2)Sc2c(Cl)cccc2Cl)cc1 (stereo not drawn) | 5.62 µM [falling, partial curve, poor fit] |
| C[C@@H]1CN(C2CCC(C#N)(c3ccc(F)cc3)CC2)CC[C@]1(C(=O)O)c1ccccc1 (stereo partly drawn) | 0.501 µM [falling, full curve, poor fit] |
| NC1(c2ccccc2)CCCCC1 | 31.6 µM [falling, single point] |
| Oc1ccc([C@H]2CNCc3c2ccc(O)c3O)cc1O | 12.6 µM [falling, single point] |
| c1ccc(N2CCNCC2)cc1 | 2.51 µM [falling, partial curve, poor fit] |
| NCCc1cc(O)c(O)cc1O | 11.2 µM [falling, partial curve, poor fit] |
| CCC(OC(C)=O)C(CC(C)NC)(c1ccccc1)c1ccccc1 (stereo not drawn) | 11.2 µM [falling, partial curve, poor fit] |
| CN1CC[C@]23c4c5ccc(O)c4O[C@H]2[C@@H](O)CC[C@H]3[C@H]1C5 | 7.94 µM [rising, single point] |
| CNC(C)Cc1ccccc1OC (stereo not drawn) | 35.5 µM [falling, single point] |
| CN(C)[C@@H]1C(=O)C(C(N)=O)=C(O)[C@@]2(O)C(=O)C3=C(O)c4c(O)cccc4[C@@](C)(O)[C@H]3C[C@@H]12 | 7.94 µM [rising, partial curve, poor fit] |
| CCCC(C)(COC(N)=O)COC(=O)NC(C)C (stereo not drawn) | 35.5 µM [rising, single point] |
| CCN[C@H](C)Cc1cccc(C(F)(F)F)c1 | 56.2 µM [falling, single point] |
| CC(C)=CCN1CC[C@@]2(C)c3cc(O)ccc3C[C@@H]1[C@@H]2C | 31.6 µM [falling, single point] |
| c1ccc2c(c1)Sc1ccccc1N2CC1CN2CCC1CC2 (stereo not drawn) | 15.8 µM [falling, single point] |
| CCC(=O)C(CC(C)N(C)C)(c1ccccc1)c1ccccc1 (stereo not drawn) | 50.1 µM [falling, single point] |
| Cc1ccc([N+](=O)[O-])[c]2c1[O][Hg]2 | 1.26 µM [falling, full curve, poor fit] |
| Clc1ccc(CSC(Cn2ccnc2)c2ccc(Cl)cc2Cl)cc1 (stereo not drawn) | 11.2 µM [falling, partial curve, poor fit] |
| CC(CC(C#N)(c1ccccc1)c1ccccc1)N(C)C (stereo not drawn) | 31.6 µM [falling, single point] |
| Nc1ccc(N)cc1 | 35.5 µM [falling, single point] |
| CC(C)=C[C@@H]1[C@@H](C(=O)OCc2coc(Cc3ccccc3)c2)C1(C)C | 14.1 µM [rising, single point] |
| CNCC(=O)c1ccc(O)c(O)c1 | 12.6 µM [falling, partial curve, poor fit] |
| CO[C@]12CC[C@@]3(C[C@@H]1[C@](C)(O)C(C)(C)C)[C@@H]1Cc4ccc(O)c5c4[C@@]3(CCN1CC1CC1)[C@H]2O5 | 56.2 µM [falling, single point] |

Three structures already listed, arranged by heavy-atom count, largest number first:

| SMILES | AC50 |
| --- | --- |
| CC(C)=CCN1CC[C@@]2(C)c3cc(O)ccc3C[C@@H]1[C@@H]2C | 31.6 µM [falling, single point] |
| Oc1ccc([C@H]2CNCc3c2ccc(O)c3O)cc1O | 12.6 µM [falling, single point] |
| CCN[C@H](C)Cc1cccc(C(F)(F)F)c1 | 56.2 µM [falling, single point] |
